PubChem BioAssay AID602196 | INSERM, 2012

Purpose: 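Genes whose knock-down alters cisplatin killing of lung cancer cells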
Cells: human A549 lung cancer cells
Reagent: siRNA pair against human genes
Time to read-out: 48 h transfection before cisplatin; time from cisplatin to read-out not stated
Challenge: cisplatin at a dose killing half of control-siRNA cells; exact dose and duration not given
Measurement: 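Shift in cisplatin death relative to control siRNA, from -50 (all cells die) to +50 (no cells die); siRNAs harmful on their own scored 0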
Reading the numbers: two-siRNA summed score (-2 to +2): higher = both siRNAs protect from cisplatin killing; -2 means both sensitise
Rule for the call: 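Each siRNA scores 0 if harmful alone by LDH or WST-1, otherwise +1 if it reduces and -1 if it increases cisplatin killing; a gene is active when both siRNAs agree (sum +2 or -2)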
Meaning of the calls: active = both siRNAs shift cisplatin killing the same way; inactive = no consistent shift, or siRNA harmful alone
The whole screen tested about 23,000 reagents; this is a random part of them. In the full data, 455 (2%) were called active. 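Active includes both protection and sensitisation; some change values fall well beyond the stated -50 to +50 range.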 A number with no mark means an inactive call. Reagents against one gene are numbered here. Not all columns of the deposit are shown. Not given: the amount of reagent.

With knock-down of LOC399917 the results were two-siRNA summed score (-2 to +2) = 0.
Against LOC389358, the values are two-siRNA summed score (-2 to +2) = 0.
After knock-down of LOC441732, the screen gave two-siRNA summed score (-2 to +2) = 0.
For ELK3, the entry reads two-siRNA summed score (-2 to +2) = 1.
For NMUR1, the values are two-siRNA summed score (-2 to +2) = 0.
For MAPK8IP3 the deposit lists two-siRNA summed score (-2 to +2) = 0.
Knock-down of LOC285703 resulted in: two-siRNA summed score (-2 to +2) = 1.
After knock-down of CDKN2C the results were two-siRNA summed score (-2 to +2) = 0.
With knock-down of NPFFR1 the results were two-siRNA summed score (-2 to +2) = -1.
Knock-down of HSPB9 came out at: two-siRNA summed score (-2 to +2) = 0.
Knock-down of LOC401389 came out at: two-siRNA summed score (-2 to +2) = 1.
ARIH1 gave two-siRNA summed score (-2 to +2) = -2 (active).
Depletion of HMCN1 came out at: two-siRNA summed score (-2 to +2) = 1.
Depletion of TBXA2R came out at: two-siRNA summed score (-2 to +2) = 0.
With knock-down of STON1-GTF2A1L, the screen gave two-siRNA summed score (-2 to +2) = 0.

Hits, of those listed so far:
ARIH1: two-siRNA summed score (-2 to +2) = -2 (active)

Additional reagents follow:
Knock-down of LOC145842 resulted in: two-siRNA summed score (-2 to +2) = 0.
For SMAP1, the values are two-siRNA summed score (-2 to +2) = 0.
Silencing of CNIH2 gave: two-siRNA summed score (-2 to +2) = 0.
After knock-down of LOC440682, the screen gave two-siRNA summed score (-2 to +2) = 0.
For LOC440203, the values are two-siRNA summed score (-2 to +2) = 0.
With knock-down of KAT5 #1, the record shows two-siRNA summed score (-2 to +2) = -1.
Against KAT5 #2, the entry reads two-siRNA summed score (-2 to +2) = -1.
Depletion of OSBPL10 came out at: two-siRNA summed score (-2 to +2) = 0.
Against STARD4 the deposit lists two-siRNA summed score (-2 to +2) = 0.
With knock-down of PTGFRN the results were two-siRNA summed score (-2 to +2) = 0.
After knock-down of LY9 the results were two-siRNA summed score (-2 to +2) = 1.
Depletion of VAC14 gave: two-siRNA summed score (-2 to +2) = 1.
For SP5, the values are two-siRNA summed score (-2 to +2) = 0.
Depletion of LOC391373 resulted in: two-siRNA summed score (-2 to +2) = 1.
For C5orf46, the values are two-siRNA summed score (-2 to +2) = 0.
ACSM2A showed two-siRNA summed score (-2 to +2) = 0.
After knock-down of LOC400721, the record shows two-siRNA summed score (-2 to +2) = 0.
For GCM1 the deposit lists two-siRNA summed score (-2 to +2) = 1.
Knock-down of UQCRH came out at: two-siRNA summed score (-2 to +2) = 1.
For TMEM126B, the entry reads two-siRNA summed score (-2 to +2) = 0.
After knock-down of ZNF804B the results were two-siRNA summed score (-2 to +2) = 0.
For ZWINT the deposit lists two-siRNA summed score (-2 to +2) = -1.
ZNF189 scored two-siRNA summed score (-2 to +2) = 0.
Against VILL, the entry reads two-siRNA summed score (-2 to +2) = 0.
With knock-down of COX6A2, the record shows two-siRNA summed score (-2 to +2) = 1.
